According to patent US10918626B2, “Method for improving pharmacokinetics” (Roche Palo Alto LLC, priority 2009, dated 2021):
For at least one compound, name, drawing or mass did not settle the structure.

Tested on: genotype 1 HCV replicon
Test: cell-based potency assay employing a genotype 1 HCV replicon
Design: species or system Hepatitis C virus
Details: with pegylated interferon alfa-2a (Pegasys)

CC(C)(C)OC(=O)N[C@H]1CCCCC/C=C\[C@@H]2C[C@@]2(C(=O)NS(=O)(=O)C2CC2)NC(=O)[C@@H]2C[C@@H](OC(=O)N3Cc4cccc(F)c4C3)CN2C1=O [R7227]
antiviral effect in combination with PEG-IFN-α2a: synergistic antiviral effects
